From doi:10.1101/406538 (bioRxiv, 2018)
Results are given in words; binding and its absence hold for the method and conditions named. Binding can be weak; no strength is given.

Molecular target: ATI1-N, N-terminal region of ATG8 Interacting Protein 1 (M1-E180) (Arabidopsis thaliana)
Assay: NMR titration

binding: binds
B1: ATG8f, processed form (1-117), recombinant (natural protein, Arabidopsis thaliana, UniProt Q8VYK7 1-117, looked up)
chain: MAKSSFKQEHDLEKRRAEAARIREKYPDRIPVIVEKAEKSDIPTIDKKKYLVPADLTVGQFVYVIRKRIKLSAEKAIFIFVDNVLPPAGALMSSVYEEKKDDDGFLYVTYSGENTFG
